In test [1] the target is T1, HA-labelled RABL6 (UniProt Q3YEC7).
T1 sequence: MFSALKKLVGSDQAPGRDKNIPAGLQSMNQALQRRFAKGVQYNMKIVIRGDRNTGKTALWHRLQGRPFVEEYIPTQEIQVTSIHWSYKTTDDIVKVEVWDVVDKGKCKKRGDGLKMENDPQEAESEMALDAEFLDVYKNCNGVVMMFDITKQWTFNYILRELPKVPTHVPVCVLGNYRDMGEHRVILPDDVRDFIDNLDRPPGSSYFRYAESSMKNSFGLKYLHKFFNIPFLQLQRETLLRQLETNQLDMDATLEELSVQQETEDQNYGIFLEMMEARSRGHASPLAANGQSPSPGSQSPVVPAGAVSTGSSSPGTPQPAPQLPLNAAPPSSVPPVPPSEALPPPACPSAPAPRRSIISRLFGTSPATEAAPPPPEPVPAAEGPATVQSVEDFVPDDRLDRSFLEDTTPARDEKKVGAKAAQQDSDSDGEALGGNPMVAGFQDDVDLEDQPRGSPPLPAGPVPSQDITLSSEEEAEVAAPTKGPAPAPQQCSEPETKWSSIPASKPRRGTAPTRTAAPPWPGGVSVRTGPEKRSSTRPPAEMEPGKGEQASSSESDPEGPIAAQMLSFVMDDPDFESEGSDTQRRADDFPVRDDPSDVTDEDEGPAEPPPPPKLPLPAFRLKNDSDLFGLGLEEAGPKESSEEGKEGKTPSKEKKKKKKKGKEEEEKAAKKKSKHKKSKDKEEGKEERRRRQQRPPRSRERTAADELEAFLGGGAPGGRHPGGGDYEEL
Nature of the test: co-IP; CHRNA5 co-transfected with HA-labelled RABL6, RABL6-39-279aa or RABL6-281-729aa into 293 T cells; lysates precipitated with anti-HA or anti-CHRNA5 antibodies.

Amino acid sequences for entries named in this document (tags omitted). Residues count along the entry.
UniProt P30532, residues 23-468: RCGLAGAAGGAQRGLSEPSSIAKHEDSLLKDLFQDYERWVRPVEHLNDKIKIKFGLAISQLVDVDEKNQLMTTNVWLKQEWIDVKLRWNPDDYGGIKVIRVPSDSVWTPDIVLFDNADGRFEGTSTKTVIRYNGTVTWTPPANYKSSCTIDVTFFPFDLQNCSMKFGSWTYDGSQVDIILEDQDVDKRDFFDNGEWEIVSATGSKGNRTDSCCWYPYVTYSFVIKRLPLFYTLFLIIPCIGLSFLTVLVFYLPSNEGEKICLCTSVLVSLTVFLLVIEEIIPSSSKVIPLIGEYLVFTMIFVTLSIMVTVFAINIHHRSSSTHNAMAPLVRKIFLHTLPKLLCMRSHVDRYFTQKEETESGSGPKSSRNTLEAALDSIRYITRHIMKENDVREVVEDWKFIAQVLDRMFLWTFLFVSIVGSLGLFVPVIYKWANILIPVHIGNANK

The target of test [2] is CHRNA5 in 293 T cells (UniProt P30532). The description is as above.
Test [3] deals with cholinergic receptor nicotinic alpha 5 subunit (CHRNA5) (human (endogenous in AMC-HN8 and FD-LSC-1)) (UniProt P30532). Nature of the test: co-IP; endogenous proteins; whole-cell extracts of AMC-HN8 and FD-LSC-1 cells (sh-NC and sh-CHRNA5); primary antibody and protein A/G beads overnight at 4 °C; IgG as negative control; western blot. A general note: In western blotting, separated proteins are transferred to a membrane and probed.

No constants are given. Whether binding was seen depends on the method and setting. Binding seen in cells or lysates may run through a third protein. Some binding calls cover weakened binding; strength is not graded here. For some of these results: Where a sequence is shown, tags or fusion partners need not be part of it.

On to “CHRNA5 in 293 T cells (from UniProt P30532 23-468) (receptor)”, for which the binding result in test [1] is “binds”.

B1: RABL6-39-279aa (domain or fragment, UniProt Q3YEC7 39-279)
chain: GVQYNMKIVIRGDRNTGKTALWHRLQGRPFVEEYIPTQEIQVTSIHWSYKTTDDIVKVEVWDVVDKGKCKKRGDGLKMENDPQEAESEMALDAEFLDVYKNCNGVVMMFDITKQWTFNYILRELPKVPTHVPVCVLGNYRDMGEHRVILPDDVRDFIDNLDRPPGSSYFRYAESSMKNSFGLKYLHKFFNIPFLQLQRETLLRQLETNQLDMDATLEELSVQQETEDQNYGIFLEMMEARS
On to B1, for which the binding result in test [2] was “binds”.

B2: HA-labelled RABL6 (protein, UniProt Q3YEC7 1-729)
chain: MFSALKKLVGSDQAPGRDKNIPAGLQSMNQALQRRFAKGVQYNMKIVIRGDRNTGKTALWHRLQGRPFVEEYIPTQEIQVTSIHWSYKTTDDIVKVEVWDVVDKGKCKKRGDGLKMENDPQEAESEMALDAEFLDVYKNCNGVVMMFDITKQWTFNYILRELPKVPTHVPVCVLGNYRDMGEHRVILPDDVRDFIDNLDRPPGSSYFRYAESSMKNSFGLKYLHKFFNIPFLQLQRETLLRQLETNQLDMDATLEELSVQQETEDQNYGIFLEMMEARSRGHASPLAANGQSPSPGSQSPVVPAGAVSTGSSSPGTPQPAPQLPLNAAPPSSVPPVPPSEALPPPACPSAPAPRRSIISRLFGTSPATEAAPPPPEPVPAAEGPATVQSVEDFVPDDRLDRSFLEDTTPARDEKKVGAKAAQQDSDSDGEALGGNPMVAGFQDDVDLEDQPRGSPPLPAGPVPSQDITLSSEEEAEVAAPTKGPAPAPQQCSEPETKWSSIPASKPRRGTAPTRTAAPPWPGGVSVRTGPEKRSSTRPPAEMEPGKGEQASSSESDPEGPIAAQMLSFVMDDPDFESEGSDTQRRADDFPVRDDPSDVTDEDEGPAEPPPPPKLPLPAFRLKNDSDLFGLGLEEAGPKESSEEGKEGKTPSKEKKKKKKKGKEEEEKAAKKKSKHKKSKDKEEGKEERRRRQQRPPRSRERTAADELEAFLGGGAPGGRHPGGGDYEEL
As to B2, the binding result in test [2] is “binds”.

B3: RABL6 (protein, UniProt Q3YEC7 1-729)
chain: MFSALKKLVGSDQAPGRDKNIPAGLQSMNQALQRRFAKGVQYNMKIVIRGDRNTGKTALWHRLQGRPFVEEYIPTQEIQVTSIHWSYKTTDDIVKVEVWDVVDKGKCKKRGDGLKMENDPQEAESEMALDAEFLDVYKNCNGVVMMFDITKQWTFNYILRELPKVPTHVPVCVLGNYRDMGEHRVILPDDVRDFIDNLDRPPGSSYFRYAESSMKNSFGLKYLHKFFNIPFLQLQRETLLRQLETNQLDMDATLEELSVQQETEDQNYGIFLEMMEARSRGHASPLAANGQSPSPGSQSPVVPAGAVSTGSSSPGTPQPAPQLPLNAAPPSSVPPVPPSEALPPPACPSAPAPRRSIISRLFGTSPATEAAPPPPEPVPAAEGPATVQSVEDFVPDDRLDRSFLEDTTPARDEKKVGAKAAQQDSDSDGEALGGNPMVAGFQDDVDLEDQPRGSPPLPAGPVPSQDITLSSEEEAEVAAPTKGPAPAPQQCSEPETKWSSIPASKPRRGTAPTRTAAPPWPGGVSVRTGPEKRSSTRPPAEMEPGKGEQASSSESDPEGPIAAQMLSFVMDDPDFESEGSDTQRRADDFPVRDDPSDVTDEDEGPAEPPPPPKLPLPAFRLKNDSDLFGLGLEEAGPKESSEEGKEGKTPSKEKKKKKKKGKEEEEKAAKKKSKHKKSKDKEEGKEERRRRQQRPPRSRERTAADELEAFLGGGAPGGRHPGGGDYEEL
For B3, in test [3], the binding result was “binds”.

Source of the values: paper PMC11180178.
